Data as given in PubChem BioAssay AID248 (DTP/NCI, 2004).
The list does not hold the whole screen: it gathers tests that were run many times, whatever their T/C, doses with no T/C, and many T/C values between a quarter and a half above the control. Other doses and runs of a compound stand elsewhere. T/C: endpoint of the treated group in % of that of the vehicle group. Some doses have a count of surviving animals in place of a T/C: the source files T/C as zero there, which appears to mark a toxic dose or a test without result, not a measured value. Some doses without a T/C left all or most animals alive at the check, yet need not have been tolerated: survival well below the control is almost never listed, so the zero probably covers shortened survival too. Counts of survivors are from the toxicity check (mostly the fifth day) where no day follows; animals may have died later. Schedules are NCI's codes, read here as Q, the interval in days (D) or hours (H), X, the number of doses. Some doses were run more than once; their values stand side by side, smallest first. Counts like (3×) give the number of equal values in this list. Where survival is the endpoint, the PubChem record calls one and a half times the control and up active, and a quarter to a half above the control has no call in these data; cut-offs in other NCI protocols can differ. Some T/C values are followed by the survivors on the day toxicity was checked, most often the fifth; without a count, all were alive then.

System: L1210 leukemia ip in BDF1 mice, survival T/C
Test: NCI In Vivo Anticancer Drug Screen. Data for tumor model L1210 Leukemia (intraperitoneal) in B6D2F1 (BDF1) mice
Conditions: T/C endpoint: mean survival time, higher T/C = longer survival
[1] = dose: 300.0 mg/kg/injection, schedule: Q01DX001 (ip), vehicle: saline
[2] = dose: 50.0 mg/kg/injection, schedule: Q01DX009 (ip), vehicle: saline
[3] = dose: 200.0 mg/kg/injection, schedule: Q01DX001 (ip), vehicle: saline
[4] = dose: 400.0 mg/kg/injection, schedule: Q01DX001 (ip), vehicle: saline
[5] = dose: 200.0 mg/kg/injection, schedule: Q01DX009 (ip), vehicle: saline with Tween-80
[6] = dose: 200.0 mg/kg/injection, schedule: Q01DX009 (ip), vehicle: Klucel (hydroxypropylcellulose) (HPC)
[7] = dose: 400.0 mg/kg/injection, schedule: Q01DX009 (ip), vehicle: Klucel (hydroxypropylcellulose) (HPC)
[8] = dose: 400.0 mg/kg/injection, schedule: Q04DX003 (ip), vehicle: Klucel (hydroxypropylcellulose) (HPC)
[9] = dose: 400.0 mg/kg/injection, schedule: Q01DX009 (ip), vehicle: saline
[10] = dose: 25.0 mg/kg/injection, schedule: Q01DX009 (ip), vehicle: Klucel (hydroxypropylcellulose) (HPC)
[11] = dose: 50.0 mg/kg/injection, schedule: Q01DX009 (ip), vehicle: Klucel (hydroxypropylcellulose) (HPC)
[12] = dose: 200.0 mg/kg/injection, schedule: Q04DX003 (ip), vehicle: saline with Tween-80
[13] = dose: 400.0 mg/kg/injection, schedule: Q04DX003 (ip), vehicle: saline with Tween-80
[14] = dose: 100.0 mg/kg/injection, schedule: Q01DX009 (ip), vehicle: saline
[15] = dose: 200.0 mg/kg/injection, schedule: Q01DX009 (ip), vehicle: saline

CSC(c1ccccc1F)=[N+]1CCCCC1
survivor count (dose: 40.0 mg/kg/injection, schedule: Q01DX001 (ip), vehicle: saline): 3 of 6
survivor count (dose: 75.0 mg/kg/injection, schedule: Q01DX001 (ip), vehicle: saline): 1 of 6
survivor count (dose: 80.0 mg/kg/injection, schedule: Q01DX001 (ip), vehicle: saline): 2 of 6
survivor count (dose: 150.0 mg/kg/injection, schedule: Q01DX001 (ip), vehicle: saline): 0 of 6
survivor count [1]: 0 of 6

CN=NC(C)(C)OC(C)=O
survivor count [2]: 1 of 6
survivor count (dose: 100.0 mg/kg/injection, schedule: Q01DX001 (ip), vehicle: saline): 1 of 6
survivor count [3]: 0 of 6
survivor count [4]: 0 of 6

[Cl][Ni+2][Cl].[NH-]CCN1CC1
survivor count (dose: 100.0 mg/kg/injection, schedule: Q04DX003 (ip), vehicle: saline): 0 of 6
survivor count (dose: 200.0 mg/kg/injection, schedule: Q04DX003 (ip), vehicle: saline): 1 of 6
survivor count (dose: 400.0 mg/kg/injection, schedule: Q04DX003 (ip), vehicle: saline): 0 of 6

CON(C)CCO
survivor count (dose: 400.0 mg/kg/injection, schedule: Q01DX001 (ip), vehicle: Klucel (hydroxypropylcellulose) (HPC)): 2 of 3

O=S(=O)(C1CCCCC1)N1N=NC2CCCCC21 (configuration not stated)
survivor count [5]: 4 of 6

COC(=O)c1ccccc1-c1ccccc1C(=O)O
T/C (dose: 100.0 mg/kg/injection, schedule: Q01DX001 (ip), vehicle: other): 126 % of control

CC1(C)C(=O)C(C)(C)C1O
survivor count [4]: 2 of 6

CC(=O)c1cccc(NC(=O)Oc2cc(=O)oc3ccccc23)c1
survivor count [6]: 4 of 6
survivor count [7]: 1 of 6

O=C(O)Cc1ccc2[nH]c3c(c2c1)CCCC3
survivor count (dose: 400.0 mg/kg/injection, schedule: Q01DX001 (ip), vehicle: steroid suspending solution): 2 of 6

CC(C)(C)CC(C)(C)N=C=S
survivor count [5]: 0 of 6
survivor count (dose: 400.0 mg/kg/injection, schedule: Q01DX009 (ip), vehicle: saline with Tween-80): 0 of 6

OCCNC1c2ccccc2-c2ccccc21
survivor count [8]: 1 of 6

Cc1cccc(OC(=O)Nc2ccc(C(=O)O)c(O)c2)c1
survivor count (dose: 400.0 mg/kg/injection, schedule: Q01DX001 (ip), vehicle: gum acacia): 0 of 3 and 0 of 6
survivor count (dose: 400.0 mg/kg/injection, schedule: Q01DX009 (ip), vehicle: gum acacia): 0 of 3 and 0 of 6
survivor count (dose: 400.0 mg/kg/injection, schedule: Q04DX002 (ip), vehicle: gum acacia): 2 of 6 and 3 of 3

C/C(Cc1c[nH]c2ccccc12)=N/NC(N)=S
survivor count [3]: 1 of 4
survivor count [4]: 2 of 4

Cc1nc(N)[nH]c(=O)c1Br
survivor count [7]: 3 of 6

O=C(NC(=S)Nc1ccc(F)cc1)c1ccco1
survivor count [6]: 3 of 6
survivor count [8]: 0 of 6

C=C(NC(=O)COc1ccccc1)C(=O)O
survivor count [9]: 0 of 6

COc1ccccc1N1CCN(CCc2c[nH]c3cc4c(cc23)OCO4)CC1
T/C [10]: 125 [5 of 6 alive] and 132 % of control
T/C [11]: 137 % of control
survivor count [11]: 0 of 6 and 3 of 6
survivor count (dose: 50.0 mg/kg/injection, schedule: Q01DX015 (ip), vehicle: carboxymethylcellulose (CMC)): 0 of 6
survivor count (dose: 100.0 mg/kg/injection, schedule: Q01DX009 (ip), vehicle: Klucel (hydroxypropylcellulose) (HPC)): 0 of 6
survivor count (dose: 100.0 mg/kg/injection, schedule: Q01DX015 (ip), vehicle: carboxymethylcellulose (CMC)): 0 of 6
survivor count (dose: 200.0 mg/kg/injection, schedule: Q01DX015 (ip), vehicle: carboxymethylcellulose (CMC)): 0 of 6 (2×)
survivor count (dose: 200.0 mg/kg/injection, schedule: Q04DX003 (ip), vehicle: Klucel (hydroxypropylcellulose) (HPC)): 4 of 4

C[P+]1(c2ccccc2)CCc2[nH]c3ccccc3c2C1 (configuration not stated)
survivor count (dose: 100.0 mg/kg/injection, schedule: Q04DX003 (ip), vehicle: saline with Tween-80): 1 of 6
survivor count [12]: 0 of 6
survivor count [13]: 0 of 6

CC1(C)C(=O)NC(=O)C1(C)C
survivor count (dose: 25.0 mg/kg/injection, schedule: Q03HX024 (ip), vehicle: saline): 0 of 6
survivor count [14]: 0 of 6
survivor count (dose: 132.0 mg/kg/injection, schedule: Q01DX009 (ip), vehicle: saline): 0 of 6
survivor count (dose: 264.0 mg/kg/injection, schedule: Q01DX009 (ip), vehicle: saline): 0 of 6
survivor count [1]: 0 of 6

N#CCn1c(C(F)(F)F)nc2nc(Cl)c(Cl)nc21
survivor count [12]: 5 of 6
survivor count [13]: 2 of 6

CC(CC12CC3CC(CC(C3)C1)C2)NN (configuration not stated)
survivor count (dose: 100.0 mg/kg/injection, schedule: Q04DX002 (ip), vehicle: Klucel (hydroxypropylcellulose) (HPC)): 2 of 3 and 3 of 3
survivor count (dose: 200.0 mg/kg/injection, schedule: Q04DX002 (ip), vehicle: Klucel (hydroxypropylcellulose) (HPC)): 0 of 3
survivor count (dose: 400.0 mg/kg/injection, schedule: Q04DX002 (ip), vehicle: Klucel (hydroxypropylcellulose) (HPC)): 0 of 3

S=P(N1CC1)(N1CC1)N1CC1.[Cl-].[Cl-].[NH2-].[NH2-].[Pt+4]
T/C (dose: 2.7 mg/kg/injection, schedule: Q01DX009 (ip), vehicle: saline): 130 % of control
T/C (dose: 4.1 mg/kg/injection, schedule: Q01DX009 (ip), vehicle: saline): 146 % of control
T/C (dose: 6.25 mg/kg/injection, schedule: Q01DX009 (ip), vehicle: saline): 131 [5 of 6 alive] and 144 % of control
T/C (dose: 9.3 mg/kg/injection, schedule: Q01DX009 (ip), vehicle: saline): 125 % of control
survivor count (dose: 12.5 mg/kg/injection, schedule: Q01DX009 (ip), vehicle: saline): 6 of 6
survivor count [10]: 6 of 6
survivor count (dose: 25.0 mg/kg/injection, schedule: Q01DX009 (ip), vehicle: saline): 3 of 6, 4 of 6 (2×), 5 of 6, 6 of 6
survivor count [2]: 4 of 6, 5 of 6, 6 of 6
survivor count [14]: 0 of 6 (3×), 1 of 6 (2×), 2 of 6
survivor count [15]: 0 of 6 (3×)
survivor count [9]: 0 of 6 (3×)

CCCCCC#CCO
survivor count [13]: 2 of 6

CCCCN(C)c1ncnc2[nH]ncc12
T/C [14]: 130 % of control
survivor count [15]: 0 of 6
survivor count [4]: 0 of 6

O=C(O)C1C(C(=O)O)C2(Cl)C(Cl)=C(Cl)C1(Cl)C2(Cl)Cl.[Cu+2] (configuration not stated)
survivor count (dose: 100.0 mg/kg/injection, schedule: Q01DX001 (ip), vehicle: Klucel (hydroxypropylcellulose) (HPC)): 0 of 6
survivor count (dose: 100.0 mg/kg/injection, schedule: Q01DX009 (ip), vehicle: saline sonified): 0 of 6
survivor count (dose: 200.0 mg/kg/injection, schedule: Q01DX009 (ip), vehicle: saline sonified): 0 of 6

NC(Cc1ccccc1)C(=O)O (configuration not stated)
survivor count [8]: 6 of 6

NNC(=O)c1ccccc1Cl
survivor count (dose: 75.0 mg/kg/injection, schedule: Q01DX001 (ip), vehicle: other): 0 of 6
survivor count (dose: 150.0 mg/kg/injection, schedule: Q01DX001 (ip), vehicle: other): 0 of 6
survivor count (dose: 300.0 mg/kg/injection, schedule: Q01DX001 (ip), vehicle: other): 0 of 6

CN1CCc2cc3c(cc2C(=O)Cc2ccc4c(c2C1)OCO4)OCO3
survivor count (dose: 200.0 mg/kg/injection, schedule: Q01DX001 (ip), vehicle: carboxymethylcellulose (CMC)): 0 of 4
survivor count [12]: 0 of 6
survivor count (dose: 400.0 mg/kg/injection, schedule: Q01DX001 (ip), vehicle: carboxymethylcellulose (CMC)): 0 of 4
